These results are taken from PubChem BioAssay AID298 (DTP/NCI, 2004).

Structures are written as SMILES. The list shows only some results of the screen, not a fair sample: it gathers tests that were run many times, whatever their T/C, doses with no T/C, and many T/C values between a quarter and a half above the control. Other doses and runs of a compound stand elsewhere. T/C is the treated group as % of the vehicle group. Schedule codes are those of the source, taken here to give the interval after Q, in days (D) or hours (H), and the number of doses after X. Some T/C values are followed by the survivors on the day toxicity was checked, most often the fifth; where none is given, no animal had died by that day. Some doses have a count of surviving animals in place of a T/C: the source files T/C as zero there, which appears to mark a toxic dose or a test without result, not a measured value. Counts of survivors are from the toxicity check (mostly the fifth day) where no day follows; animals may have died later. Some entries were tested several times; the results are listed from low to high.

For the test, the system named is MX-1 breast xenograft, intrarenal, nude mice, tumor weight. Briefly: NCI In Vivo Anticancer Drug Screen. Data for tumor model Human Mammary Carcinoma MX-1 Xenograft (intrarenal inoculation) in NU/NU BALB/C (nude) mice. The following applies: T/C endpoint: mean tumor weight change, higher T/C = larger tumour; for T/C: evaluated on day 11. Here is the method:
The antitumor activity of compounds was measured in mice bearing transplantable tumors. Survival or tumor size were measured and the results are expressed as the measurement made in the treated group (T) divided by the measurement made in the vehicle treated control group (C). The tumor model used in this assay is Human Mammary Carcinoma MX-1 Xenograft (intrarenal inoculation) in NU/NU BALB/C (nude) mice

The mark [1] stands for this setting: dose: 400.0 mg/kg/injection, schedule: Q04DX003 (ip), vehicle: saline with Tween-80.
Where [2] appears, read: dose: 300.0 mg/kg/injection, schedule: Q04DX003 (ip), vehicle: saline with Tween-80.
Where [3] appears, read: dose: 600.0 mg/kg/injection, schedule: Q04DX003 (ip), vehicle: saline with Tween-80.
Where [4] appears, read: dose: 1200.0 mg/kg/injection, schedule: Q04DX003 (ip), vehicle: saline with Tween-80.

For `COC1=C(C)C(=O)C2=C(C1=O)C(CO)N1C(C#N)C3CC4C(C1C2N1CCOC41)N3C` (stereo unspecified), the survivor count was 2 of 6 on day 11 (dose: 4.17 mg/kg/injection, schedule: Q04DX003 (ip), vehicle: acid diluted with saline); 0 of 6 on day 11 (dose: 5.0 mg/kg/injection, schedule: Q04DX003 (ip), vehicle: acid diluted with saline); 0 of 6 on day 11 (dose: 10.0 mg/kg/injection, schedule: Q04DX003 (ip), vehicle: acid diluted with saline); 0 of 6 on day 11 (dose: 10.0 mg/kg/injection, schedule: Q04DX003 (ip), vehicle: saline + alcohol); 0 of 6 on day 11 (dose: 20.0 mg/kg/injection, schedule: Q04DX003 (ip), vehicle: saline + alcohol).
Consider `COc1ccc(C=C(C(=O)CCN(C)C)C(=O)CCN(C)C)cc1`, for which the survivor count (dose: 400.0 mg/kg/injection, schedule: Q04DX003 (ip), vehicle: saline) is recorded as 1 of 6 on day 11.
Take `CC(=O)C(Cl)C(=O)c1c(C)[nH]n(-c2ccccc2)c1=O` (stereo unspecified): the T/C (dose: 75.0 mg/kg/injection, schedule: Q04DX003 (ip), vehicle: Klucel (hydroxypropylcellulose) (HPC)) is 130 % of control. Moreover, the survivor count is 2 of 5 on day 11 (dose: 300.0 mg/kg/injection, schedule: Q04DX003 (ip), vehicle: Klucel (hydroxypropylcellulose) (HPC)) and 0 of 5 on day 11 (dose: 600.0 mg/kg/injection, schedule: Q04DX003 (ip), vehicle: Klucel (hydroxypropylcellulose) (HPC)).
For the compound `CCOc1ccc(C(C)c2cc3c(cc2OC)OCO3)cc1` (stereo unspecified), the survivor count (dose: 1200.0 mg/kg/injection, schedule: Q04DX003 (ip), vehicle: distilled water + Tween-80) is reported as 0 of 6 on day 11.
For the compound `CNC(=O)N(C)N=NCCCl`, the survivor count by setting is: under setting [1], 1 of 6 on day 11; (dose: 666.66 mg/kg/injection, schedule: Q04DX003 (ip), vehicle: saline with Tween-80) 0 of 6 on day 11; (dose: 800.0 mg/kg/injection, schedule: Q04DX003 (ip), vehicle: saline with Tween-80) 0 of 5 on day 11.
As to `O=C(O)CC1C(=O)OC2C3COC(=O)c4cc(O)c(O)c(O)c4-c4c(cc(O)c(O)c4O)C(=O)OC2C(OC(=O)c2cc(O)c(O)c4c2C1C(O)C(=O)O4)C(OC(=O)c1cc(O)c(O)c(O)c1)O3` (stereo unspecified), the survivor count (dose: 200.0 mg/kg/injection, schedule: Q04DX003 (ip), vehicle: saline) is 1 of 6 on day 11.
As to `Cc1ccc2c(c1)C1(SC(C)C(=O)N1c1ccc(Cl)cc1)C(=O)N2` (stereo unspecified), the T/C under setting [1] is 125 % of control [5 of 6 alive on day 11].
As for `OC(CBr)C(O)C(O)C(O)CBr` (stereo unspecified), the survivor count is reported as 1 of 3 on day 11 (dose: 120.0 mg/kg/injection, schedule: Q01DX010 (ip), vehicle: Klucel (hydroxypropylcellulose) (HPC)); 0 of 3 on day 11 (dose: 200.0 mg/kg/injection, schedule: Q04DX003 (sc), vehicle: Klucel (hydroxypropylcellulose) (HPC)); 0 of 3 on day 11 (dose: 400.0 mg/kg/injection, schedule: Q04DX003 (ip), vehicle: Klucel (hydroxypropylcellulose) (HPC)); 0 of 3 on day 11 (dose: 400.0 mg/kg/injection, schedule: Q04DX003 (sc), vehicle: Klucel (hydroxypropylcellulose) (HPC)).
With `O=C1C=C2C(=CCOC2O)O1` (stereo unspecified), the survivor count (dose: 8.0 mg/kg/injection, schedule: Q04DX003 (sc), vehicle: Klucel (hydroxypropylcellulose) (HPC)) is on record as 3 of 6 on day 11.
Regarding `CN(C)c1nc(N(C)C)nc(N(C)C)n1`, the survivor count is given as 0 of 2 on day 11 (dose: 240.0 mg/kg/injection, schedule: Q01DX010 (sc), vehicle: saline with Tween-80); 0 of 2 on day 11 (dose: 400.0 mg/kg/injection, schedule: Q01DX010 (sc), vehicle: saline with Tween-80); 3 of 6 on day 11 (dose: 600.0 mg/kg/injection, schedule: Q04DX003 (sc), vehicle: saline with Tween-80).
Consider `CCOC(=O)/C=C/C(=O)N1CCN(C(=O)/C=C/C(=O)OCC)C(C)C1` (stereo unspecified), for which the survivor count (dose: 1200.0 mg/kg/injection, schedule: Q04DX003 (ip), vehicle: Klucel (hydroxypropylcellulose) (HPC)) was 0 of 6 on day 11.
Take `CN1COc2c(n(C)c(=O)[nH]c2=O)C1`: the T/C (dose: 100.0 mg/kg/injection, schedule: Q04DX003 (ip), vehicle: saline) is 128 % of control.
As for `c1ccc2[nH]c(CN(CCN(Cc3nc4ccccc4[nH]3)Cc3nc4ccccc4[nH]3)Cc3nc4ccccc4[nH]3)nc2c1`, the survivor count is 0 of 6 on day 11 and 2 of 6 on day 11 (dose: 50.0 mg/kg/injection, schedule: Q04DX003 (ip), vehicle: DMSO); 0 of 6 on day 11 (dose: 100.0 mg/kg/injection, schedule: Q04DX003 (ip), vehicle: DMSO); 0 of 6 on day 11 (dose: 200.0 mg/kg/injection, schedule: Q04DX003 (ip), vehicle: DMSO); 0 of 6 on day 11 (dose: 400.0 mg/kg/injection, schedule: Q04DX003 (ip), vehicle: DMSO).
For the compound `C[n+]1ccc2cc(N)c3c4ccccc4sc3c2c1`, the survivor count is reported as 0 of 6 on day 11 (dose: 50.0 mg/kg/injection, schedule: Q04DX003 (sc), vehicle: saline with Tween-80) and 0 of 6 on day 11 (dose: 100.0 mg/kg/injection, schedule: Q04DX003 (sc), vehicle: saline with Tween-80).
Regarding `COC(=O)Nc1nc2ccc(C3(c4ccc(F)cc4)OCCO3)cc2[nH]1`, the T/C (dose: 1200.0 mg/kg/injection, schedule: Q04DX003 (sc), vehicle: saline with Tween-80) is 143 % of control.
For `CC(C)(C)c1cc2c3c(c1)Oc1cc(C(C)(C)C)cc4c1C3(O)c1c(cc(C(C)(C)C)cc1O4)O2`, where the note is “dose: 12.5 mg/kg/injection, schedule: Q04DX003 (ip), vehicle: Klucel (hydroxypropylcellulose) (HPC)”, the T/C is 132 % of control. Moreover, the survivor count (dose: 25.0 mg/kg/injection, schedule: Q04DX003 (ip), vehicle: Klucel (hydroxypropylcellulose) (HPC)) was 0 of 6 on day 11; the survivor count (dose: 50.0 mg/kg/injection, schedule: Q04DX003 (ip), vehicle: Klucel (hydroxypropylcellulose) (HPC)) is recorded as 0 of 6 on day 11; the survivor count (dose: 100.0 mg/kg/injection, schedule: Q04DX003 (ip), vehicle: Klucel (hydroxypropylcellulose) (HPC)) is reported as 0 of 6 on day 11.
`O=C(O)CCCc1ccc(N(CCCl)CCCl)cc1`: the survivor count (dose: 27.0 mg/kg/injection, schedule: Q04DX003 (ip), vehicle: Klucel (hydroxypropylcellulose) (HPC)) is recorded as 1 of 5 on day 11.
For `CN(C)CN1C(=O)S/C(=C2\C(=O)N(CN(C)C)c3ccccc32)C1=O`, the survivor count (dose: 800.0 mg/kg/injection, schedule: Q04DX003 (ip), vehicle: Klucel (hydroxypropylcellulose) (HPC)) is 0 of 6 on day 11.
Consider `COc1ccc2[nH]c3ccc4cc[n+](CCN5CCC(C6CCN(CC[n+]7ccc8ccc9[nH]c%10ccc(OC)cc%10c9c8c7)CC6)CC5)cc4c3c2c1`, for which the survivor count (dose: 106.67 mg/kg/injection, schedule: Q04DX003 (ip), vehicle: other) is 1 of 6 on day 11.
Take `NC(CS)C(=O)O` (stereo unspecified): the survivor count reads like this: under setting [2], 1 of 6 on day 11; under setting [3], 1 of 6 on day 11; under setting [4], 0 of 6 on day 11; (dose: 2400.0 mg/kg/injection, schedule: Q04DX003 (ip), vehicle: saline with Tween-80) 0 of 6 on day 11.
Take `CCCCCCCCCCCCN1C(C)=CS/C1=C\C=C\c1scc(C)[n+]1CCCCCCCCCCCC`: the survivor count is, setting by setting: (dose: 6.0 mg/kg/injection, schedule: Q04DX003 (ip), vehicle: saline with Tween-80) 0 of 6 on day 11; (dose: 12.5 mg/kg/injection, schedule: Q04DX003 (ip), vehicle: saline with Tween-80) 0 of 6 on day 11; (dose: 25.0 mg/kg/injection, schedule: Q04DX003 (ip), vehicle: saline with Tween-80) 0 of 6 on day 11; (dose: 50.0 mg/kg/injection, schedule: Q04DX003 (ip), vehicle: saline with Tween-80) 0 of 6 on day 11; (dose: 100.0 mg/kg/injection, schedule: Q04DX003 (ip), vehicle: saline with Tween-80) 0 of 6 on day 11.
In the case of `CNc1ncn(-c2c(C)cccc2C)c(=O)n1`, the survivor count runs as follows: under setting [2], 3 of 5 on day 11; under setting [3], 3 of 5 on day 11; under setting [4], 2 of 6 on day 11.
